No constants are given. Whether binding was seen depends on the method and setting. Binding seen in cells or lysates may run through a third protein. Some entries that bind do so weakly or less than the wild type. For part of these data: Tags and fused reporters may be left off the sequences shown. One block for each substance: values may come before it.
Assays:
HA-IRF3 = biological target: T1, HA-IRF3 (UniProt Q14653); assay: co-IP; HEK293T cells co-transfected with two tagged proteins, lysed in RIPA buffer 36 h later; precipitated with tag antibodies (anti-HA, anti-Flag) and Protein A/G agarose, western blot
T1 sequence: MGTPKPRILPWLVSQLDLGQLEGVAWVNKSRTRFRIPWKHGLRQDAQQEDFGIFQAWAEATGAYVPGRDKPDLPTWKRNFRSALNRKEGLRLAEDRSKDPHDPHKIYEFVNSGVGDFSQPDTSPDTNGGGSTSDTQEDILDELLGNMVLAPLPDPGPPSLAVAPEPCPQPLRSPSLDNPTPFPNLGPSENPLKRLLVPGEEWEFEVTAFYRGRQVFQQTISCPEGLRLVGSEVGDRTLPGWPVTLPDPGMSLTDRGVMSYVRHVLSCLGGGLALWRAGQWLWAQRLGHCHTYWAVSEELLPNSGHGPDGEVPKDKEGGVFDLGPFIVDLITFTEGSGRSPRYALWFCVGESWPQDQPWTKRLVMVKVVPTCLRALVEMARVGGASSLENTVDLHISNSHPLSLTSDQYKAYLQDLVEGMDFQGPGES

Sequences of proteins named here, by UniProt entry; tags and fusion partners are left off.
UniProt Q9UKV8: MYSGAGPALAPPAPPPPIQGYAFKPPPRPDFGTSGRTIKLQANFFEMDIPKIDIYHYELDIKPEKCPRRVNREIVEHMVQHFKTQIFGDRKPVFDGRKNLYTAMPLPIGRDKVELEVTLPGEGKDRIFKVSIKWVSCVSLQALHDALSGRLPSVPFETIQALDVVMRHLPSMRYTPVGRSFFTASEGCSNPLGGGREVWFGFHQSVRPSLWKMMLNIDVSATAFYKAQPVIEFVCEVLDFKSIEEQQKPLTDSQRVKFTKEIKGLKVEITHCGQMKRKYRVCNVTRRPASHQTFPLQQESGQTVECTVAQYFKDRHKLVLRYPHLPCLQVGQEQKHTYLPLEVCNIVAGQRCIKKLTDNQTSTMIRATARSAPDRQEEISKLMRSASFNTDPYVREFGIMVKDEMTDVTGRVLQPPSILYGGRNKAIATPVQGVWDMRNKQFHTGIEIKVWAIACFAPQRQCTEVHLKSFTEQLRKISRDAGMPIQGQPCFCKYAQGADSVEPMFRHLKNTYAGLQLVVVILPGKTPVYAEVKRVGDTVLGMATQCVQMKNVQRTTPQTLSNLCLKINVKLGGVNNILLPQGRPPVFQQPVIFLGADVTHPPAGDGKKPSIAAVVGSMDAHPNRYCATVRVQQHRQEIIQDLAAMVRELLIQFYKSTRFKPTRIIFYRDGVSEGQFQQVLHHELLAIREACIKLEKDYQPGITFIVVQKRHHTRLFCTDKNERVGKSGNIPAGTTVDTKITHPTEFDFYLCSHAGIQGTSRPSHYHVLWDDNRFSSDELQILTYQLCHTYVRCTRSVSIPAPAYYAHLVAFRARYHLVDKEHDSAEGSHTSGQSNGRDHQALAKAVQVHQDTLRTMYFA
UniProt Q92793: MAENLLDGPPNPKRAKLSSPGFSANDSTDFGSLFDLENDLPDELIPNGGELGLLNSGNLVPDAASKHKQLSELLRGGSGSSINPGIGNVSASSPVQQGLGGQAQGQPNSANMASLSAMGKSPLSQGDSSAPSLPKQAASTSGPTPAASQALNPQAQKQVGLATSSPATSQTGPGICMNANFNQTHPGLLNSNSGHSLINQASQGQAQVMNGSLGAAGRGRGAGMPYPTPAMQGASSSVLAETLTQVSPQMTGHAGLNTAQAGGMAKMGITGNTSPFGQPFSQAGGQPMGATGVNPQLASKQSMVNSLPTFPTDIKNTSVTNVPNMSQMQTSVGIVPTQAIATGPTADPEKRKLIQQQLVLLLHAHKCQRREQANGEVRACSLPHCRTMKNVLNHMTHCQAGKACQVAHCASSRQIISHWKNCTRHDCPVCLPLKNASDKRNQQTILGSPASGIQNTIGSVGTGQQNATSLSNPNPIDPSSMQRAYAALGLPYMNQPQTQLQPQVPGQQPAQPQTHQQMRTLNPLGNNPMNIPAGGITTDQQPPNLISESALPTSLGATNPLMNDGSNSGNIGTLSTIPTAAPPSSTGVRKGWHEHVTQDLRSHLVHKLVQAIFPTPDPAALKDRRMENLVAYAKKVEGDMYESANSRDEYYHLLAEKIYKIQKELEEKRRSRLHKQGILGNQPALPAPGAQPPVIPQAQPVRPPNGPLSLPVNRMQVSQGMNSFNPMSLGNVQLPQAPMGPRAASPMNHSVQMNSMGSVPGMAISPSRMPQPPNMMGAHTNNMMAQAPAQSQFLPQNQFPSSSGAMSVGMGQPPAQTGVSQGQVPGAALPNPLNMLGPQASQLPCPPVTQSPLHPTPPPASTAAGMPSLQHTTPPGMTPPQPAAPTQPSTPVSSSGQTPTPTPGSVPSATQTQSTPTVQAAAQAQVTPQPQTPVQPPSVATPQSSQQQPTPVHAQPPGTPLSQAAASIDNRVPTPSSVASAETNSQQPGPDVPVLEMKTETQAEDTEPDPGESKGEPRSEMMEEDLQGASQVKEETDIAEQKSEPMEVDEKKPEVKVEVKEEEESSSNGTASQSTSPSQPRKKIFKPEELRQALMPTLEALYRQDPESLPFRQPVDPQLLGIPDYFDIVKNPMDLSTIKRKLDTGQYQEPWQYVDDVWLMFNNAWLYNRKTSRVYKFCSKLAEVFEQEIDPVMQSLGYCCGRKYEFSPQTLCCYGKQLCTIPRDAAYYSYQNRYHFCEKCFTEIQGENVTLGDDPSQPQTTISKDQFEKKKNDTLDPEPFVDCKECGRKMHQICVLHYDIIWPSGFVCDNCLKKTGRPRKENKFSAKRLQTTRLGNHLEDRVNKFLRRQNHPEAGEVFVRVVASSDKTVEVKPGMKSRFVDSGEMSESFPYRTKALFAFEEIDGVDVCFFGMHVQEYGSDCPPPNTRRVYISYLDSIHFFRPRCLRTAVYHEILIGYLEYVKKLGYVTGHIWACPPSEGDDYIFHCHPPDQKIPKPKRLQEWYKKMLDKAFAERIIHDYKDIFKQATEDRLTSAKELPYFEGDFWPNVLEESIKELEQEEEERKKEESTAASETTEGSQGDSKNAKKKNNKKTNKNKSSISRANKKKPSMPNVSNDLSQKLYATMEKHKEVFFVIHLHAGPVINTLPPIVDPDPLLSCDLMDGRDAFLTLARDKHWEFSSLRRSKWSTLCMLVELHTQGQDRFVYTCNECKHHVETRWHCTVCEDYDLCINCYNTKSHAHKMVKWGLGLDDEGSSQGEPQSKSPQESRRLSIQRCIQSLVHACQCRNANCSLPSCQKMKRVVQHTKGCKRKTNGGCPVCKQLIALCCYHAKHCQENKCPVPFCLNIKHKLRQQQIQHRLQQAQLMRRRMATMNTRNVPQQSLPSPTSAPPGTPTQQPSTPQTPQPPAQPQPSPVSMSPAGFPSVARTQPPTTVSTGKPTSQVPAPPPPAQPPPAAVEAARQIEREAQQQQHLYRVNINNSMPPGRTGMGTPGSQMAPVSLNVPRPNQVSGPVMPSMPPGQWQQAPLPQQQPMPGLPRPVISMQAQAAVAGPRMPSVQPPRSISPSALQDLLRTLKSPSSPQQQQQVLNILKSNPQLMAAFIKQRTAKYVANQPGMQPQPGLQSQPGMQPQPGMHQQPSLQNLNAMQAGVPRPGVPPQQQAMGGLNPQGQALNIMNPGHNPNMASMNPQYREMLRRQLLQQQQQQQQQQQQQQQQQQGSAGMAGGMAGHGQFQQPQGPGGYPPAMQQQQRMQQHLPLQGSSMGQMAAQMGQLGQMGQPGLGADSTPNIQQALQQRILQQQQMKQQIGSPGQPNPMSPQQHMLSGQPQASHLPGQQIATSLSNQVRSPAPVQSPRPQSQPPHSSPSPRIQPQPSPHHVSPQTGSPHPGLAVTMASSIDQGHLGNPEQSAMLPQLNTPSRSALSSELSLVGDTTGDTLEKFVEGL

Flag-IRF3(198–427) = biological target: T2, Flag-IRF3(198–427) (UniProt Q14653); assay: as above
T2 sequence: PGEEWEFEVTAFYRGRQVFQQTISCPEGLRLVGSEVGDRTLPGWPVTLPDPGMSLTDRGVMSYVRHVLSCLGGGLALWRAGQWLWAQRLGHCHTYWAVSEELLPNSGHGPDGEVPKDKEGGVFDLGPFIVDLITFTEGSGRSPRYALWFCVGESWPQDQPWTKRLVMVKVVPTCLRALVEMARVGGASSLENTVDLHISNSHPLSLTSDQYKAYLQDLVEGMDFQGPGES

Flag-IRF3 [1] = biological target: T3, Flag-IRF3 (UniProt Q14653); assay: as above
T3 sequence: T1 sequence

[2] = biological target: T4, endogenous IRF3 (human (endogenous in HEK293T and A549)) (UniProt Q14653); assay: co-IP; endogenous proteins; A549 cells stimulated with SeV for 6 h; anti-IRF3 antibody used for immunoprecipitation
T4 sequence: T1 sequence

[3] = biological target: T4, endogenous IRF3 (human (endogenous in HEK293T and A549)); assay: co-IP; endogenous proteins; HEK293T cells stimulated with SeV for 3 h; anti-IRF3 antibody used for immunoprecipitation
Flag-IRF3 [4] = biological target: T3, Flag-IRF3; assay: co-IP; HEK293T cells co-transfected with Flag-IRF3 or Flag-IRF3-5D and HA-AGO2, HA-AGO2-MIDdel or empty vector; after 36 h stimulated with SeV for 12 h; lysates precipitated with anti-Flag and blotted with anti-CBP (endogenous CBP)

binding (HA-IRF3): binds
Substance: Flag-AGO2 (from UniProt Q9UKV8 1-859)

binding (Flag-IRF3(198–427)): binds
binding (Flag-IRF3 [1]): binds
Substance: HA-AGO2 (from UniProt Q9UKV8 1-859)

binding [2]: binds
binding [3]: binds
Substance: endogenous AGO2 (from UniProt Q9UKV8 1-859)

binding (Flag-IRF3 [4]): binds
Substance: endogenous CBP (from UniProt Q92793 1-2442)

From article PMC5438986
